Values of other authors, collected in patent publication US20230346784A1 (priority 2020, published 2023).
The name of at least one read-out is uncertain.

Settings: cited from earlier work

CCN(CC)CCCC(C)Nc1ccnc2cc(Cl)ccc12 (stereo not shown) [chloroquine]
effect on remdesivir activity (EC50 for remdesivir): antagonizes remdesivir in a dose dependent manner
